Assay results from the supplement of paper PMC8728848.
The other results are listed elsewhere or left out.

How the values were obtained:
Assay in all cases: glycan array binding signal (z-score within array); higher = stronger binding
Conditions in all cases: glycan notation: IUPAC condensed, linker removed
[1] = target: GalNAc(b1-4)GlcNAc(b1-2)Man
In short: (§1)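 Columns mapping to the same glycan were averaged after glycan names were converted to IUPAC-condensed notation. The data come from 3228 arrays in the Consortium for Functional Glycomics database, limited to those with an available protein sequence. Binding is reported as a within-array Z-score averaged across arrays of one protein sequence and across linkers.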

[2] = target: GalNAc(b1-4)GlcNAc(b1-2)Man(a1-3)[GalNAc(b1-4)GlcNAc(b1-2)Man(a1-6)]Man(b1-4)GlcNAc(b1-4)GlcNAc
In short: as §1

[3] = target: GalNAc(b1-4)GlcNAc(b1-3)GalNAc(b1-4)GlcNAc
In short: as §1

GalNAc(b1-4)GlcNAc6S = target: GalNAc(b1-4)GlcNAc6S
In short: as §1

GalNAc(b1-6)GalNAc = target: GalNAc(b1-6)GalNAc
In short: as §1

GalNAc3S(b1-4)GlcNAc = target: GalNAc3S(b1-4)GlcNAc
In short: as §1

GalNAc3S(b1-4)GlcNAc3S = target: GalNAc3S(b1-4)GlcNAc3S
In short: as §1

[4] = target: GalNAc3S(b1-4)[Fuc(a1-3)]GlcNAc
In short: as §1

GalNAc4S6S(b1-4)GlcNAc = target: GalNAc4S6S(b1-4)GlcNAc
In short: as §1

GalNAc6S(b1-4)GlcNAc = target: GalNAc6S(b1-4)GlcNAc
In short: as §1

Glc(a1-4)Glc = target: Glc(a1-4)Glc
In short: as §1

[5] = target: Glc(a1-4)Glc(a1-4)Glc(a1-4)Glc
In short: as §1

Glc(a1-6)Glc(a1-6)Glc = target: Glc(a1-6)Glc(a1-6)Glc
In short: as §1

[6] = target: Glc(a1-6)Glc(a1-6)Glc(a1-6)Glc
In short: as §1

Glc(b1-4)Glc = target: Glc(b1-4)Glc
In short: as §1

Glc(b1-6)Glc = target: Glc(b1-6)Glc
In short: as §1

GlcA(b1-3)Gal = target: GlcA(b1-3)Gal
In short: as §1

GlcA(b1-3)GlcNAc = target: GlcA(b1-3)GlcNAc
In short: as §1

GlcA(b1-6)Gal = target: GlcA(b1-6)Gal
In short: as §1

[7] = target: GlcA3S(b1-3)Gal(b1-4)GlcNAc(b1-2)Man
In short: as §1

[8] = target: GlcA3S(b1-3)Gal(b1-4)GlcNAc(b1-3)Gal(b1-4)Glc
In short: as §1

[9] = target: GlcNAc(a1-3)Gal(b1-4)GlcNAc
In short: as §1

[10] = target: GlcNAc(a1-4)Gal(b1-3)GlcNAc
In short: as §1

[11] = target: GlcNAc(a1-4)Gal(b1-4)GalNAc
In short: as §1

[12] = target: GlcNAc(a1-4)Gal(b1-4)GlcNAc
In short: as §1

[13] = target: GlcNAc(a1-4)Gal(b1-4)GlcNAc(b1-3)Gal(b1-4)Glc
In short: as §1

[14] = target: GlcNAc(a1-4)Gal(b1-4)GlcNAc(b1-3)Gal(b1-4)GlcNAc
In short: as §1

[15] = target: GlcNAc(a1-4)Gal(b1-4)GlcNAc(b1-3)Gal(b1-4)GlcNAc(b1-3)Gal(b1-4)GlcNAc
In short: as §1

[16] = target: GlcNAc(a1-4)Gal(b1-4)GlcNAc(b1-3)Gal(b1-4)[Fuc(a1-3)]GlcNAc(b1-3)Gal(b1-4)[Fuc(a1-3)]GlcNAc
In short: as §1

[17] = target: GlcNAc(a1-6)Gal(b1-4)GlcNAc
In short: as §1

[18] = target: GlcNAc(b1-2)Gal(b1-3)GalNAc
In short: as §1

[19] = target: GlcNAc(b1-2)Man(a1-3)[GlcNAc(b1-2)Man(a1-6)]Man(b1-4)GlcNAc(b1-4)GlcNAc
In short: as §1

[20] = target: GlcNAc(b1-2)Man(a1-3)[GlcNAc(b1-2)Man(a1-6)]Man(b1-4)GlcNAc(b1-4)[Fuc(a1-6)]GlcNAc
In short: as §1

[21] = target: GlcNAc(b1-2)Man(a1-3)[GlcNAc(b1-4)][GlcNAc(b1-2)Man(a1-6)]Man(b1-4)GlcNAc(b1-4)GlcNAc
In short: as §1

[22] = target: GlcNAc(b1-2)Man(a1-3)[GlcNAc(b1-4)][GlcNAc(b1-2)Man(a1-6)]Man(b1-4)GlcNAc(b1-4)[Fuc(a1-6)]GlcNAc
In short: as §1

[23] = target: GlcNAc(b1-2)[GlcNAc(b1-4)]Man(a1-3)[GlcNAc(b1-2)Man(a1-6)]Man(b1-4)GlcNAc(b1-4)GlcNAc
In short: as §1

[24] = target: GlcNAc(b1-2)[GlcNAc(b1-4)]Man(a1-3)[GlcNAc(b1-4)][GlcNAc(b1-2)Man(a1-6)]Man(b1-4)GlcNAc(b1-4)GlcNAc
In short: as §1

B1: PX9916F-bfa-443-24-443 (Bacteroides fragilis) (protein)
chain: DIRPVGSVIPQTAEEYRALLARAYLNVPNDRGLACLRSDEMLVNDNEYDRNSYGDIERWNDVSPFPGTSQFTWSNFYNVLFIANQVIESQKEITEGTPEVVNQLVGEAHLLRAYLHFVLVNLHGQPYTKSGALNSKSIPLKLDTDLEKTLGRNTVEEVYTSILSDIEHARELINKEKWETVFSYRFNVLSVDALQSRVSLYMGAWPKCLESAEAVLAKKSVLVDMNETPLALPNHFESVESITALEQVMGSSVNNAVWVPATFLALYQEGDKRLAAYFAAPDENGNRKSSKGGKREFSCTFRVGELYLNAAEAAANMDKLPHARMRLLELMRKRYTPEAYDKKENAVNVMDKNALISEILNERARELAFEGHRWFDLRRTTRPRMVKVLQGKTYILEQDDPRYTIPIPRDAIAANPGLAN
For B1, the “glycan array binding signal (z-score)” value [1] was -0.005, the “glycan array binding signal (z-score)” value [2] was 0.935 and the “glycan array binding signal (z-score)” value [3] was 2.16. For the same binder, the “glycan array binding signal (z-score)” value (GalNAc(b1-4)GlcNAc6S) was 0.581, the “glycan array binding signal (z-score)” value (GalNAc(b1-6)GalNAc) was 0.481 and the “glycan array binding signal (z-score)” value (GalNAc3S(b1-4)GlcNAc) was -0.685. For the same binder, the “glycan array binding signal (z-score)” value (GalNAc3S(b1-4)GlcNAc3S) was -1.31, the “glycan array binding signal (z-score)” value [4] was -0.5 and the “glycan array binding signal (z-score)” value (GalNAc4S6S(b1-4)GlcNAc) was -0.109. For the same binder, the “glycan array binding signal (z-score)” value (GalNAc6S(b1-4)GlcNAc) was -1.03, the “glycan array binding signal (z-score)” value (Glc(a1-4)Glc) was 0.362 and the “glycan array binding signal (z-score)” value [5] was -0.434. For the same binder, the “glycan array binding signal (z-score)” value (Glc(a1-6)Glc(a1-6)Glc) was -0.494, the “glycan array binding signal (z-score)” value [6] was 0.231 and the “glycan array binding signal (z-score)” value (Glc(b1-4)Glc) was 1.34. The “glycan array binding signal (z-score)” value (Glc(b1-6)Glc) was 0.089, the “glycan array binding signal (z-score)” value (GlcA(b1-3)Gal) was -0.094 and the “glycan array binding signal (z-score)” value (GlcA(b1-3)GlcNAc) was -0.947. The “glycan array binding signal (z-score)” value (GlcA(b1-6)Gal) was 2.71, the “glycan array binding signal (z-score)” value [7] was -0.319 and the “glycan array binding signal (z-score)” value [8] was 0.319. The “glycan array binding signal (z-score)” value [9] was -0.98, the “glycan array binding signal (z-score)” value [10] was -0.212 and the “glycan array binding signal (z-score)” value [11] was 1.35. The “glycan array binding signal (z-score)” value [12] was -0.288, the “glycan array binding signal (z-score)” value [13] was -0.689 and the “glycan array binding signal (z-score)” value [14] was -1.01. For the same binder, the “glycan array binding signal (z-score)” value [15] was -0.314, the “glycan array binding signal (z-score)” value [16] was 0.015 and the “glycan array binding signal (z-score)” value [17] was 0.214. The “glycan array binding signal (z-score)” value [18] was 0.007, the “glycan array binding signal (z-score)” value [19] was -0.266 and the “glycan array binding signal (z-score)” value [20] was -0.516. For the same binder, the “glycan array binding signal (z-score)” value [21] was -0.986, the “glycan array binding signal (z-score)” value [22] was -0.859 and the “glycan array binding signal (z-score)” value [23] was -0.964. For the same binder, the “glycan array binding signal (z-score)” value [24] was -0.856.
